Structures are written as SMILES. Structures were worked out from names or drawings and are uncertain. Where only a bound is given, the exact number is not on record here.

Protein sequences, listed by entry. Tags and fused reporters are not part of them.
UniProt P06239, whole entry: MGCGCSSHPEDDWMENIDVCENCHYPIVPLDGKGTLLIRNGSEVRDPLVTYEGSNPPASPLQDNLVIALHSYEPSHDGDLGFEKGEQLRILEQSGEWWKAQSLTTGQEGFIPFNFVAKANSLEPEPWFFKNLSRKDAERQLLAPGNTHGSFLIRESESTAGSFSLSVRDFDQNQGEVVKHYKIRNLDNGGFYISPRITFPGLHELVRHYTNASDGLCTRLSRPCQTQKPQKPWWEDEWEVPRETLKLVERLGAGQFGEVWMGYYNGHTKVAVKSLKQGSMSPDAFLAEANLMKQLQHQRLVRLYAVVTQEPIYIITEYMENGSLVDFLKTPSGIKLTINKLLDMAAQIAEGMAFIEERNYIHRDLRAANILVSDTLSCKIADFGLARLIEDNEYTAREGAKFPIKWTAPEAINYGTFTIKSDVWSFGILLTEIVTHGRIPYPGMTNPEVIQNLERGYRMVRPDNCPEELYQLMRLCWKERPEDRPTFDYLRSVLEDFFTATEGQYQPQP
UniProt Q99640, whole entry: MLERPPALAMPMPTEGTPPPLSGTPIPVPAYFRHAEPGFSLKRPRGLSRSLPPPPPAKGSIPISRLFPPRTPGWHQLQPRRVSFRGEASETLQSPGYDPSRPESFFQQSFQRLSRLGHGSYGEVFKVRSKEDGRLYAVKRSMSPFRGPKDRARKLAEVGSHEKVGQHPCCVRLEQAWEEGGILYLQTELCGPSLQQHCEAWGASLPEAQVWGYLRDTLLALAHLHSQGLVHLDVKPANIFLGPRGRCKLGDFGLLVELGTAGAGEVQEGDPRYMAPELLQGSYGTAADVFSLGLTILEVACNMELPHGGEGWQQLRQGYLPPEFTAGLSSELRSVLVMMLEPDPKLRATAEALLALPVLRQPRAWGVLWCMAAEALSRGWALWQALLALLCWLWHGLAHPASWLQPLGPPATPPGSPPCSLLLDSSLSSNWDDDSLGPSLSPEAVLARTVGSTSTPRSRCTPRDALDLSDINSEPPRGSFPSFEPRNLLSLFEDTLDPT

One test has as its target LCK (Homo sapiens (Human), UniProt P06239). The test is described as follows: In vitro assay: kinase binding to immobilized ligand, captured kinase measured by qPCR. Conditions: read-out: LCK (IC50 = nM). Background: In qPCR the cycle at which signal appears reflects the starting amount.
A further test deals with PKMYT1 (Homo sapiens (Human), UniProt Q99640). Described as above. Conditions: read-out: PKMYT1 (IC50 = nM).

`CCC(C)c1ncc2c(C(N)=O)c(N)n(-c3c(C)ccc(O)c3C)c2n1` (centres unmarked): the IC50 was 50 to 100 nM on LCK and less than 50 nM at PKMYT1.
Take `CCC(C)c1ncc2c(C(N)=O)c(N)n(-c3c(C)ccc(O)c3C)c2c1F` (centres unmarked): the IC50 at LCK and at PKMYT1 was less than 50 nM each time.
Take `Cc1ccc(O)c(C)c1-n1c(N)c(C(N)=O)c2cnc(C3(C(F)(F)F)CC3)nc21`: the half-inhibitory concentration (IC50) on LCK is 50 to 100 nM; on PKMYT1 it was less than 50 nM.
On to `Cc1ccc(O)c(C)c1-n1c(N)c(C(N)=O)c2cnc(Cl)c(F)c21`, for which the IC50 was 50 to 100 nM on LCK and less than 50 nM at PKMYT1.
`Cc1ccc(O)c(C)c1-n1c(N)c(C(N)=O)c2cnc(C(C)C)c(F)c21`: the IC50 on LCK and at PKMYT1 was less than 50 nM throughout.
`Cc1ncc(O)c(C)c1-n1c(N)c(C(N)=O)c2cnc(C)c(F)c21`: the IC50 on PKMYT1 lay in the range of 100 to 1000 nM.
Consider `Cc1ccc(O)c(C)c1-n1c(N)c(C(N)=O)c2cnc(NCC(O)CC(F)(F)F)nc21` (centres unmarked), for which the IC50 at PKMYT1 was less than 50 nM.
Regarding `Cc1ccc(O)c(C)c1-n1c(N)c(C(N)=O)c2cnc(C(C)C)nc21`, the IC50 at LCK is 50 to 100 nM; at PKMYT1, less than 50 nM.
For the molecule `Cc1ccc(O)c(C)c1-n1c(N)c(C(N)=O)c2cnc(/C=C\C3CC3)nc21`, the IC50 on LCK and at PKMYT1 was less than 50 nM throughout.
For `Cc1ncc(O)c(C)c1-n1c(N)c(C(N)=O)c2cncc(F)c21`, at PKMYT1, the IC50 fell in the range of 100 to 1000 nM.
On to `CCOc1ncc2c(C(N)=O)c(N)n(-c3c(C)ccc(O)c3C)c2n1`, for which the half-maximal inhibitory concentration (IC50) at PKMYT1 is less than 50 nM.
Consider `CCN(CC)c1ncc2c(C(N)=O)c(N)n(-c3c(C)ccc(O)c3C)c2c1F`, for which the results for the IC50 at LCK and on PKMYT1 were less than 50 nM and 50 to 100 nM, respectively.

One may read the IC50 as the concentration at which inhibition is half-maximal.

The record behind these values is patent US20250388583A1, “COMPOUNDS AND METHOD FOR PKMYT1 INHIBITION” (Engine Biosciences Pte. Ltd., priority 2022, published 2025).
